Test results: publication PMC9478404
The exact form of at least one protein or probe is not confirmed. For some of these results: A weaker result is weaker than the reference pair of the same experiment. For some of these results: Where a protein sequence is shown, tags need not be part of it.

Assays:
Assay in all cases: fluorescence polarization
[1] = molecular target: B-Myb 34-370 (DBD-TAD) (Homo sapiens) (UniProt P10244); conditions: FP: 20 nM TAMRA-MBS probe, 150 mM NaCl, 25 mM Tris pH 8, 1 mM DTT, 0.1% Tween20; DBD+NRD preincubated 30 min on ice; assay temperature not stated; recombinant protein; residues 34-370; protein details: GST removed by TEV; label: 3' TAMRA on printed strand (/36-TAMSp/)
[2] = molecular target: T1, B-Myb 34-600 (DBD-TAD-NRD) (Homo sapiens) (UniProt P10244); conditions: unphosphorylated, weak affinity similar to unphosphorylated full-length; FP: 20 nM TAMRA-MBS probe, 150 mM NaCl, 25 mM Tris pH 8, 1 mM DTT, 0.1% Tween20; DBD+NRD preincubated 30 min on ice; assay temperature not stated; recombinant protein; residues 34-600; protein details: cleavable N-terminal Strep tag; label: 3' TAMRA on printed strand (/36-TAMSp/)
T1 sequence (looked up): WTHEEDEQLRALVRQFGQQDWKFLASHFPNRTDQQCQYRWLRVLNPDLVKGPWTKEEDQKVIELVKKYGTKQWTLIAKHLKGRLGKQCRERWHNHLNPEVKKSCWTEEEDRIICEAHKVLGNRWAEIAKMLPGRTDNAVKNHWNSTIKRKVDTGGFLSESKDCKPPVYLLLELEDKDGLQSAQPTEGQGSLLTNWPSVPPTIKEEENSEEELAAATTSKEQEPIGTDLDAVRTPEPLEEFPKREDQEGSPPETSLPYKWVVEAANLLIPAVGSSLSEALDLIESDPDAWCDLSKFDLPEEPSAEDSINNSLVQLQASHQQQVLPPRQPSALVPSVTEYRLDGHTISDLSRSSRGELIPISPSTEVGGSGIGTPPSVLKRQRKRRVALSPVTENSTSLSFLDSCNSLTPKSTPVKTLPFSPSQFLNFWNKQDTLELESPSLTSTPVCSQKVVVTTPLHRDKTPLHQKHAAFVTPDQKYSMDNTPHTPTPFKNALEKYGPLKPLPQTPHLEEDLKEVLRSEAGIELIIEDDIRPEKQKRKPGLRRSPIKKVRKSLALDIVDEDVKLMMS

[3] = molecular target: B-Myb DBD (Homo sapiens) (UniProt P10244); conditions: FP: 20 nM TAMRA-MBS probe, 150 mM NaCl, 25 mM Tris pH 8, 1 mM DTT, DBD+NRD preincubated 30 min on ice, assay temperature not stated, recombinant protein, residues 34-183, protein details: GST removed by TEV, label: 3' TAMRA on printed strand (/36-TAMSp/)
[4] = molecular target: B-Myb full-length, phosphorylated by Cdk2-CycA only (Homo sapiens) (UniProt P10244); conditions: phosphorylated by Cdk2-CycA only; FP: 20 nM TAMRA-MBS probe, 150 mM NaCl, 25 mM Tris pH 8, 1 mM DTT, 0.1% Tween20; DBD+NRD preincubated 30 min on ice; assay temperature not stated; recombinant protein; residues 1-700; protein details: cleavable N-terminal Strep tag; label: 3' TAMRA on printed strand (/36-TAMSp/)
[5] = molecular target: B-Myb full-length, phosphorylated by Cdk2-CycA then Plk1 (Homo sapiens) (UniProt P10244); conditions: phosphorylated by Cdk2-CycA and Plk1; FP: 20 nM TAMRA-MBS probe, 150 mM NaCl, 25 mM Tris pH 8, 1 mM DTT, 0.1% Tween20; DBD+NRD preincubated 30 min on ice; assay temperature not stated; recombinant protein; residues 1-700; protein details: cleavable N-terminal Strep tag; label: 3' TAMRA on printed strand (/36-TAMSp/)
[6] = molecular target: B-Myb full-length, treated with Plk1 only (Homo sapiens) (UniProt P10244); conditions: Plk1 only, no effect compared with unphosphorylated B-Myb; FP: 20 nM TAMRA-MBS probe, 150 mM NaCl, 25 mM Tris pH 8, 1 mM DTT, 0.1% Tween20; DBD+NRD preincubated 30 min on ice; assay temperature not stated; recombinant protein; residues 1-700; protein details: cleavable N-terminal Strep tag; label: 3' TAMRA on printed strand (/36-TAMSp/)
[7] = molecular target: T2, B-Myb full-length, unphosphorylated (Homo sapiens) (UniProt P10244); conditions: unphosphorylated, weak, potentially nonspecific binding; FP: 20 nM TAMRA-MBS probe, 150 mM NaCl, 25 mM Tris pH 8, 1 mM DTT, 0.1% Tween20; DBD+NRD preincubated 30 min on ice; assay temperature not stated; recombinant protein; residues 1-700; protein details: cleavable N-terminal Strep tag; label: 3' TAMRA on printed strand (/36-TAMSp/)
T2 sequence (looked up): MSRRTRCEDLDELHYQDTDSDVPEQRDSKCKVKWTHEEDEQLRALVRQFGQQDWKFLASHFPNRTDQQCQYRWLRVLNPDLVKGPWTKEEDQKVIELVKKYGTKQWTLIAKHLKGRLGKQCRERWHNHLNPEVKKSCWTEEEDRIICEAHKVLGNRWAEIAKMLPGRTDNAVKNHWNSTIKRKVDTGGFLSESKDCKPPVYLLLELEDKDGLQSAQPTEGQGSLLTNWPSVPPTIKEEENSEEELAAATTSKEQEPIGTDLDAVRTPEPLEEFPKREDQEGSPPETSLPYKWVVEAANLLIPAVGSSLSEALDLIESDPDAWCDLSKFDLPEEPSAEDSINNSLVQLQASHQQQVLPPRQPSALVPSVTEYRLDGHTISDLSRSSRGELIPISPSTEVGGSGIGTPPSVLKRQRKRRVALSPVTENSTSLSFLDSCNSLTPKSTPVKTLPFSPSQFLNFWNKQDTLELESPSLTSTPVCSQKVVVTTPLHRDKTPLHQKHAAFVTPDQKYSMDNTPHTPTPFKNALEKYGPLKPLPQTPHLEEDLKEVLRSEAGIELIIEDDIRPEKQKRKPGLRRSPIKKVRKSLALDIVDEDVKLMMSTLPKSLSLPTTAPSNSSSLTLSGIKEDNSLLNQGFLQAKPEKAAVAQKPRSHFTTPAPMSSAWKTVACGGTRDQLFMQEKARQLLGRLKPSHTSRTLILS

## GCATTATAACGGTCTTTTAGCGCCTGG (double strand) [MBS probe]
[1]
  Kd: 1 µM
[2]
  binding result: binds more weakly
[3]; 30 uM Cdk2-CycA-phosphorylated NRD 510-600 S577A in trans, inhibition abrogated, 0.1% …
  binding result: binds
[3]; 30 uM Cdk2-CycA-phosphorylated NRD 510-600 T515A,T518A,T520A in trans, inhibition similar to unphosphorylated mutant, 0.1% Tween20
  binding result: binds more weakly
[3]; 30 uM Cdk2-CycA-phosphorylated NRD 510-600 T538A in trans, inhibition abrogated, 0.1% …
  binding result: binds
[3]; 30 uM Cdk2-CycA-phosphorylated NRD (440-600) in trans, 0.1% Tween20
  Kd: 1 µM
[3]; 30 uM NRD 510-600 T515A,T518A,T520A in trans, value assigned from unlabelled figure text, 0.1% Tween20
  Kd: 3 µM
[3]; 30 uM Plk1-phosphorylated TAD in trans, 0.1% Tween20
  Kd: 0.9 µM
[3]; 30 uM TAD in trans, 0.1% Tween20
  Kd: 0.9 µM
[3]; 30 uM unphosphorylated NRD (440-600) in trans, 0.1% Tween20
  Kd: 16 µM
[3]; 30 uM unphosphorylated WT NRD (510-600) in trans, 0.1% Tween20
  Kd: 16 µM
[3]; DBD alone (given as 1.1 +/- 0.1 uM with Fig. 4), 0.1% Tween20
  Kd: 1 µM
[4]
  Kd: 4 µM
[5]
  Kd: 3 µM
[6]
  binding result: binds more weakly
[7]
  Kd: > 10 µM
